No constants are given. Whether binding was seen depends on the method and setting.
Molecular target: T1, ΔChd7(787–2134) (human) (UniProt Q9P2D1)
T1 sequence: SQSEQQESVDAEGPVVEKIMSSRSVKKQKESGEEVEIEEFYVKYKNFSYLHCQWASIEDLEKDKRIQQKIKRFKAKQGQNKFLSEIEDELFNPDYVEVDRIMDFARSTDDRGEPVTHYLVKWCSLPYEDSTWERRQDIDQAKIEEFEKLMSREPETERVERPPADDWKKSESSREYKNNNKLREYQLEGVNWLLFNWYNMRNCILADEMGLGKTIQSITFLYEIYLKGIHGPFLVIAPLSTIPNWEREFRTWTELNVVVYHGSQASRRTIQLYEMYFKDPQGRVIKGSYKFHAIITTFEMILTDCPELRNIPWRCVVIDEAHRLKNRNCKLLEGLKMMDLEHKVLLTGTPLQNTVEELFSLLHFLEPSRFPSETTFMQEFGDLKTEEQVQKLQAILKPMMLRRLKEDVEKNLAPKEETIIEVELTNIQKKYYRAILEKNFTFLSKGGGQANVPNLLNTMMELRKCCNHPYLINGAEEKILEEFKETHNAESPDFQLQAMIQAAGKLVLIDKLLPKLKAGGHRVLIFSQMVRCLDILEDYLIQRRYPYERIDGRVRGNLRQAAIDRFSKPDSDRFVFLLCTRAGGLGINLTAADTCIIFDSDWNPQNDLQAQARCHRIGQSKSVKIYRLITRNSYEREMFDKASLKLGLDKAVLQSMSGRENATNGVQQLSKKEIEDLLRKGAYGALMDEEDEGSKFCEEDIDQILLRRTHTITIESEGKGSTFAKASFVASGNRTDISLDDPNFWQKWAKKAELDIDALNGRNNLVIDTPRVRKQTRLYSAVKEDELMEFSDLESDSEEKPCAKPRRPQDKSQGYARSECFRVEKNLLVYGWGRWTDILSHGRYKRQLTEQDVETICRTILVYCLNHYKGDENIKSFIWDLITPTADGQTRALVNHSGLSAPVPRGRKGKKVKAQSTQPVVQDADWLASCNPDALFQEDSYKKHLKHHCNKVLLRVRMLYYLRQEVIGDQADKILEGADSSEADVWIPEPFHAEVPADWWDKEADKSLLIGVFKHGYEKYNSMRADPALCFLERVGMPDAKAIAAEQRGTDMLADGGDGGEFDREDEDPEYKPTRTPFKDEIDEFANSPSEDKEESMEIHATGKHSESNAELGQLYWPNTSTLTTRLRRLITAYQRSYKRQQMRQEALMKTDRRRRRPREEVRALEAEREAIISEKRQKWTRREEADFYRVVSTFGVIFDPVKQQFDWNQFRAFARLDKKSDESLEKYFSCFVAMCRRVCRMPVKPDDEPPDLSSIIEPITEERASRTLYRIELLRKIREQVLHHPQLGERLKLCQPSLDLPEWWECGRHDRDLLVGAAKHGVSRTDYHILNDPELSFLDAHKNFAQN
Test: native gel or EMSA; native PAGE binding experiments of PKM2 and ΔChd7, with increasing molar concentration of PKM2 or of Chd7 (S1 Fig); both purified

binding: no binding
Substance: Pyruvate Kinase M2 (from UniProt P14618 1-531) (enzyme)

Source: publication PMC6368300
